No constants are given. Whether binding was seen depends on the method and setting. In cells and extracts the contact can be indirect. Binding can be weak; no strength is given.
Columns and labels:
Assay in all cases: co-IP
[1] = molecular target: T1, zebrafish Lhx1b (zebrafish) (UniProt O13106)
T1 sequence: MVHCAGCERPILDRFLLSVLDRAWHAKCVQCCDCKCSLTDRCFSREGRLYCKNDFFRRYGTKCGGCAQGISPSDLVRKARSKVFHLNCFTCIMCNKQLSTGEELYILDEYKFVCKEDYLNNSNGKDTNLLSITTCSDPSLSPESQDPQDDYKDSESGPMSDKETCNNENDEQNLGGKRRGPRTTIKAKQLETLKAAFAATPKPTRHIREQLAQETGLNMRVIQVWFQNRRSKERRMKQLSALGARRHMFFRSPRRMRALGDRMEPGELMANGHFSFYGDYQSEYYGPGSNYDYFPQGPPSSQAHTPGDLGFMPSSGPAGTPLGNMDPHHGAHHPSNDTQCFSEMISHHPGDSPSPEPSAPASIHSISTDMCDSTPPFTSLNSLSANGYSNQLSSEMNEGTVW

[2] = molecular target: T2, zebrafish Lhx5 (zebrafish) (UniProt P52889)
T2 sequence: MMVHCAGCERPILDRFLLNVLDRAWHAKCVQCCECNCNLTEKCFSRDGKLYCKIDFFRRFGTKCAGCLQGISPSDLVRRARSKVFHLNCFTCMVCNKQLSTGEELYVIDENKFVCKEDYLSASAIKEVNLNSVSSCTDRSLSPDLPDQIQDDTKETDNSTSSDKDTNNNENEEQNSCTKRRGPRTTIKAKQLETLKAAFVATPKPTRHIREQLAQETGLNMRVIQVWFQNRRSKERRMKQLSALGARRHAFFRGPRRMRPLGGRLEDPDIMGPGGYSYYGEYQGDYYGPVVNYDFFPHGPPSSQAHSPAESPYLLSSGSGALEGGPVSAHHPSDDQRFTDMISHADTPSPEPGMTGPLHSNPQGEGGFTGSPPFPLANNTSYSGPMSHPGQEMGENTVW

[3] = molecular target: T3, zebrafish Lhx1a (zebrafish) (UniProt Q90476)
T3 sequence: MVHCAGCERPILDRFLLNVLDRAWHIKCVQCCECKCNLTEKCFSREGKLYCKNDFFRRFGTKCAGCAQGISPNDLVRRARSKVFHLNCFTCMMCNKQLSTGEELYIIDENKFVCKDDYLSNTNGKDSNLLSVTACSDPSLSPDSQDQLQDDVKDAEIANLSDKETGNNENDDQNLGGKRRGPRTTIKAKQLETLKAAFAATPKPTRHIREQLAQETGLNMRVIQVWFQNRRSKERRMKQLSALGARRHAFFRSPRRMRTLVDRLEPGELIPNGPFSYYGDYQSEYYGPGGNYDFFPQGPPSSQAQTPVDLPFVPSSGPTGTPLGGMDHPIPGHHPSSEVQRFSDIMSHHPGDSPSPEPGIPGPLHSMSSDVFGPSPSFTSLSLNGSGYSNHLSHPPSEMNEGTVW

Measured: binding

zebrafish Skor2
binds: all assays above
